Paper PMC7069958

Tested on: mB*UbxWT (myc-BirA*-GGSGG-Ubx isoform Ia)
Experiment: EMSA
Settings: 20 mM HEPES pH 7.9, 1.4 mM MgCl2, 1 mM ZnSO4, 40 mM KCl, 0.1 mM EDTA, 5% glycerol, 0.2 ug poly(dI-dC), 0.1 ug BSA, 10 mM DTT, 0.1% NP40, 30 ul, 20 min; recombinant protein; residues 1-380; protein details: His, myc-BirA* (N-terminal fusion); label: 5'-Cy5

## TTCAGAGCGAATGATTTATGACCGGTCAAG (double strand) [Ubx consensus site probe]
  binding result: binds

The exact form of at least one protein or probe is not confirmed. At least one verdict was read from the data and is not stated in words by the source.
